Data from the primary screen of doi:10.1371/journal.pone.0140310, rounded.

All values are for the listed drug together with ABT-263 (2 µM): CC1(C)CCC(c2ccc(Cl)cc2)=C(CN2CCN(c3ccc(C(=O)NS(=O)(=O)c4ccc(N[C@H](CCN5CCOCC5)CSc5ccccc5)c(S(=O)(=O)C(F)(F)F)c4)cc3)CC2)C1

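The test systems are human melanoma cell lines, treated with a pair of drugs for 72 h and then stained and imaged. Each value is the cleaved-PARP-positive fraction of nuclei relative to DMSO-treated wells, in %, so that 100 equals the control and higher values mean more apoptosis. Every drug was used at one fixed concentration, the higher of two screened. No replicate spread is given; individual values may be noisy. Basal and induced levels differ widely between cell lines.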
Only some of the drugs and lines screened are listed, without regard to their results.
A dash means that no value is listed here.

Second drug,A101D,C32,501mel,A2058,WM1716,LOX IMVI,MZ2-MEL,COLO 800,G-361,MeWo
O=C(O)[C@@H]1[O][Sb](=[O])([O][Sb]2(=[O])[O][C@H]([C@H](O)CO)[C@H](O)[C@H](C(=O)O)[O]2)[O][C@H]([C@H](O)CO)[C@@H]1O (stereo partly drawn) at 10 µM,388,175,-,178,1110,165,292,83.9,411,189
C[As](C)SC[C@H](NC(=O)CC[C@H](N)C(=O)O)C(=O)NCC(=O)O at 2 µM,99.8,558,-,239,1750,256,200,83.1,270,179
Nc1cccc2c1CN(C1CCC(=O)NC1=O)C2=O (stereo not drawn) at 5 µM,88.2,169,-,125,796,97.7,-,114,240,232
CC(=O)c1c(C)c2cnc(Nc3ccc(N4CCNCC4)cn3)nc2n(C2CCCC2)c1=O at 0.2 µM,59.8,279,-,111,1360,144,364,69.4,219,156
Cn1cnc2c(F)c(Nc3ccc(Br)cc3Cl)c(C(=O)NOCCO)cc21 at 0.075 µM,147,146,-,156,773,67.5,-,113,413,307
Cc1cc(Nc2cc(N3CCN(C)CC3)nc(/C=C/c3ccccc3)n2)n[nH]1 at 0.2 µM,170,588,-,180,926,406,370,302,376,178
N.N.[Cl][Pt][Cl] at 8 µM,171,362,-,177,2310,63.3,562,111,241,285
Nc1nc(F)nc2c1ncn2[C@@H]1O[C@H](CO)[C@@H](O)[C@@H]1O at 1 µM,158,339,-,112,816,123,-,338,235,163
CCCCCCCCc1ccc(CCC(N)(CO)CO)cc1 at 10 µM,1180,1480,-,1320,8050,207,1150,1520,10700,1930
O=c1[nH]nc(Sc2ncc([N+](=O)[O-])s2)n1-c1ccc2c(c1)OCCO2 at 1 µM,260,180,-,153,1290,321,308,440,141,361
NC1(c2ccc(-c3nc4ccn5c(=O)[nH]nc5c4cc3-c3ccccc3)cc2)CCC1 at 2 µM,423,240,-,104,1010,128,275,158,215,175
Cc1cn(-c2cc(NC(=O)c3ccc(C)c(Nc4nccc(-c5cccnc5)n4)c3)cc(C(F)(F)F)c2)cn1 at 1 µM,178,120,-,197,2140,207,567,95.2,176,381
O=C(Nc1ccccc1)c1cc([N+](=O)[O-])ccc1Cl at 10 µM,673,1320,336,147,3130,122,149,1280,142,293
NC(=O)c1ccc(N(C(N)=O)c2c(F)cccc2F)nc1-c1ccc(F)cc1F at 2 µM,145,868,-,118,1160,138,395,84.1,99.2,215
O=C(Oc1ccc([N+](=O)[O-])cc1)N1CCC(C(O)(c2ccc3c(c2)OCO3)c2ccc3c(c2)OCO3)CC1 at 5 µM,191,86.8,36.3,109,1250,215,587,219,127,240
COc1ccc(C2=N[C@@H](c3ccc(Cl)cc3)[C@@H](c3ccc(Cl)cc3)N2C(=O)N2CCNC(=O)C2)c(OC(C)C)c1 at 0.5 µM,248,917,-,126,1950,43.3,494,93.9,258,245
Cn1cc(/C=C2\C(=O)Nc3cccnc32)c2ccccc21 at 2 µM,143,89.2,52.5,92.5,1140,67.9,204,124,262,144
COc1cc2ncnc(Nc3ccc(Oc4ccccc4)cc3)c2cc1OC at 10 µM,373,73.1,252,152,1140,278,164,346,606,317
CN1CCN(c2ccc3nc(-c4c(N)c5c(F)cccc5[nH]c4=O)[nH]c3c2)CC1 at 0.5 µM,326,127,-,1060,1630,423,3480,173,520,801
Oc1cc(-c2nc(-c3ccccc3)[nH]c2-c2ccncc2)ccc1Cl at 1 µM,345,547,105,189,3530,104,260,34.5,1030,138
Cn1c(=O)n(-c2ccc(C(C)(C)C#N)cc2)c2c3cc(-c4cnc5ccccc5c4)ccc3ncc21 at 0.02 µM,243,215,-,235,647,372,238,165,227,122
Oc1nc(-c2ccc(C(F)(F)F)cc2)nc2c1CSCC2 at 10 µM,273,69.7,105,117,2440,71.1,194,435,98.8,128
CCCCCCCCCCCC1=C(O)C(=O)C=C(O)C1=O at 6 µM,102,82.2,99.2,108,3610,561,234,125,193,282
COc1cc(Nc2ncc(F)c(Nc3ccc4c(n3)NC(=O)C(C)(C)O4)n2)cc(OC)c1OC at 2 µM,982,256,-,214,2230,426,210,91.4,398,325
C[C@]1(c2nc3c(C(N)=O)cccc3[nH]2)CCCN1 at 7 µM,75.8,163,-,140,645,161,571,193,217,250
CCCCCCCCCCCCCCCCCCOP(=O)([O-])OC1CC[N+](C)(C)CC1 at 2 µM,148,52.2,-,285,1550,427,310,334,220,257
CN(C)S(=O)(=O)c1ccc2c(c1)/C(=C/c1cc3c([nH]1)CCCC3)C(=O)N2 at 2 µM,566,973,-,216,2490,131,820,30.8,122,172
CS(=O)(=O)c1ccc(C(=O)Nc2ccc(Cl)c(-c3ccccn3)c2)c(Cl)c1 at 5 µM,296,102,-,183,1930,212,298,210,203,240
Cn1cc(C2=C(c3cn(C4CCN(Cc5ccccn5)CC4)c4ccccc34)C(=O)NC2=O)c2ccccc21 at 4 µM,136,579,-,472,3170,105,804,209,449,238
CCN(CC)CCCCNc1ncc2cc(-c3cc(OC)cc(OC)c3)c(NC(=O)NC(C)(C)C)nc2n1 at 0.5 µM,198,88.6,534,200,1830,310,349,440,215,410
CS(=O)(=O)CCNCc1ccc(-c2ccc3ncnc(Nc4ccc(OCc5cccc(F)c5)c(Cl)c4)c3c2)o1 at 4 µM,243,186,-,253,812,364,351,410,356,349
CC(C)CCN1c2nc(Nc3cc(F)c(O)c(F)c3)ncc2N(C)C(=O)C1C (stereo not drawn) at 1 µM,839,126,138,109,2630,124,129,263,508,693
CNC(=O)c1cc(Oc2ccc(NC(=O)Nc3ccc(Cl)c(C(F)(F)F)c3)cc2)ccn1 at 2 µM,61.1,195,-,110,741,142,551,80.9,324,402
COc1ccc(-c2ccc3c(N4CCOCC4)nc(N4C[C@@H](C)O[C@@H](C)C4)nc3n2)cc1CO at 0.1 µM,689,105,78.4,81.8,530,102,110,219,253,167
CN(NC(=O)CC(=O)NN(C)C(=S)c1ccccc1)C(=S)c1ccccc1 at 0.03 µM,125,4320,-,791,2820,209,119,421,828,1260
C=CCNC1=C2C[C@@H](C)C[C@H](OC)[C@H](O)[C@@H](C)/C=C(\C)[C@H](OC(N)=O)[C@@H](OC)/C=C\C=C(/C)C(=O)NC(=CC1=O)C2=O at 0.01 µM,254,527,-,265,1010,77.6,-,125,455,203

Some entries from above, unchanged:

Second drug	A101D	C32	501mel	A2058	WM1716	LOX IMVI	MZ2-MEL	COLO 800	G-361	MeWo
O=C(Nc1ccccc1)c1cc([N+](=O)[O-])ccc1Cl at 10 µM	673	1320	336	147	3130	122	149	1280	142	293
C[As](C)SC[C@H](NC(=O)CC[C@H](N)C(=O)O)C(=O)NCC(=O)O at 2 µM	99.8	558	-	239	1750	256	200	83.1	270	179
N.N.[Cl][Pt][Cl] at 8 µM	171	362	-	177	2310	63.3	562	111	241	285
CN(C)S(=O)(=O)c1ccc2c(c1)/C(=C/c1cc3c([nH]1)CCCC3)C(=O)N2 at 2 µM	566	973	-	216	2490	131	820	30.8	122	172